Patent publication US20230374508
For at least one entry, the source does not settle the construct or the ends of the probe. Where cells or extracts were used, other partners may take part. For part of these data: Tags and fusion partners may be left off the protein sequences shown.

By UniProt entry, the sequences of proteins in these tests, tags left out. Where a name states a change or a piece, a line headed by the entry shows the natural chain unless it says otherwise.
UniProt Q9UPY3: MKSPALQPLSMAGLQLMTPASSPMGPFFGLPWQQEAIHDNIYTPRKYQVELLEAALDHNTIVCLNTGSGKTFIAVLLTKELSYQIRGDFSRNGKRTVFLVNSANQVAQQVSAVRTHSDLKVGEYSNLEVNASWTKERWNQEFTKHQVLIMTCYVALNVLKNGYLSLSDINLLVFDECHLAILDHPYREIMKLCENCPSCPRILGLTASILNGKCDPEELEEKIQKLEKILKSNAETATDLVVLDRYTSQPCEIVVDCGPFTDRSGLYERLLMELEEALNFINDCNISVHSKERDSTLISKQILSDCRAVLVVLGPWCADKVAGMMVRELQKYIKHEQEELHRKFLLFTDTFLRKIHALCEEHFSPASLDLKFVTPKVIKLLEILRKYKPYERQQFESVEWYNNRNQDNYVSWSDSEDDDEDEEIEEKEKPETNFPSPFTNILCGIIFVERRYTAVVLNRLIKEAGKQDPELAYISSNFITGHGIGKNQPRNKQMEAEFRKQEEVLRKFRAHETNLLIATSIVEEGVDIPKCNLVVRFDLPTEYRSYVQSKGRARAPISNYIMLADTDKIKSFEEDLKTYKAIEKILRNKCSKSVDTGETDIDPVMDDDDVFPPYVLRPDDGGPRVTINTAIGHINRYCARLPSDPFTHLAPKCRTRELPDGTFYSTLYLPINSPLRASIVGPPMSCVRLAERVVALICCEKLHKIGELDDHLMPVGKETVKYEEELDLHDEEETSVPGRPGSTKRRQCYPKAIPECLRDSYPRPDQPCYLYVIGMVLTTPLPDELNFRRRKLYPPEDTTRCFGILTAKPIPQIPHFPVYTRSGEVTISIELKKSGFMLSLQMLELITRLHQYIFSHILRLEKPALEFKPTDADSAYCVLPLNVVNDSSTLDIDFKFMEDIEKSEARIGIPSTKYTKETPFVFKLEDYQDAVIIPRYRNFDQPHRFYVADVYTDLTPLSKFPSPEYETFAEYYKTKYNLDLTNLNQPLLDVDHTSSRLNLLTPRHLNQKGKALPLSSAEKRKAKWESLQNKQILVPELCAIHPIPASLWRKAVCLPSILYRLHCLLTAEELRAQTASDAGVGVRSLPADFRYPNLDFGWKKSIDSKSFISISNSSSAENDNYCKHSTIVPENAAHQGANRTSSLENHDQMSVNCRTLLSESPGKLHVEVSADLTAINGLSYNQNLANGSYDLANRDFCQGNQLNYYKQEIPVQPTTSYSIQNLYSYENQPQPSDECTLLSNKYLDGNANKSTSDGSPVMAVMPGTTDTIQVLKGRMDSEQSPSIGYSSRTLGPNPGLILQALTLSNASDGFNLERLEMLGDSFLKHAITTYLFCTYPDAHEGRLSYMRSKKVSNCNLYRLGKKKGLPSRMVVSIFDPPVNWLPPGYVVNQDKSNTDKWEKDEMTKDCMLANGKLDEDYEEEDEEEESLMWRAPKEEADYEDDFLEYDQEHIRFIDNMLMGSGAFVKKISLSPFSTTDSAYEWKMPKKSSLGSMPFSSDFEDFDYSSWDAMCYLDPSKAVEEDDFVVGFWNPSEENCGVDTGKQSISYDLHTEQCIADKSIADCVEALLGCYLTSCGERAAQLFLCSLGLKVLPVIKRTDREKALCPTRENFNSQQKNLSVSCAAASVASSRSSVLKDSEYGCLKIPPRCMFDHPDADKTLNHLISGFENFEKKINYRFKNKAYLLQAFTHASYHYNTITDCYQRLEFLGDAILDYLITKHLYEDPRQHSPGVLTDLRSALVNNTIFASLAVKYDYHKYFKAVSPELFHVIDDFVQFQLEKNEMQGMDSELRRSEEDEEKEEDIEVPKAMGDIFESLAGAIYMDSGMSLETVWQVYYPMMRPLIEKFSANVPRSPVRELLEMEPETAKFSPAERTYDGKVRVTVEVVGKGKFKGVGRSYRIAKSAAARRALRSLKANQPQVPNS

Assays:
Experiment in all cases: pull-down
[1] = target: DICER (Homo sapiens) (UniProt Q9UPY3); conditions: protein in cells; protein details: endogenous, GSC nuclear lysate
[2] = target: T1, RBM3 (Homo sapiens) (UniProt P98179); conditions: protein in cells; protein details: endogenous, GSC lysate
T1 sequence (looked up, limits assumed): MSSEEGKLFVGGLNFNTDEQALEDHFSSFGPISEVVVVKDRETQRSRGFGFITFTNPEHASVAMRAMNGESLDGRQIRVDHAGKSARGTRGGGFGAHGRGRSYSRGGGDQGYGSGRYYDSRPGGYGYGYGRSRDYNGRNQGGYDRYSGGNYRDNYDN

[3] = target: T2, GFP-RBM3 (Homo sapiens) (UniProt P98179); conditions: protein in cells; protein details: copGFP fusion (pCDH-EF1-copGFP vector)
T2 sequence (looked up, limits assumed): T1 sequence (looked up, limits assumed)

Measured: binding result

GUCGUAUUUGUGAUUGAAGCUGAGUACAUUUUGCUGGUGUAUUUUUAGAAACUUUGUCUGCGA [circ2082 (hsa_circ_0002082)]
binds: all assays above
